From article PMC12040169 (PLOS Biology, 2025)
Read-outs that look alike come from different tables or passages of the source. Some of the results follow.

Tested on: T1, CTL2-GFP (C. trachomatis L2/434/Bu, GFP-expressing)
T1 construct: L2/434/Bu, GFP-expressing
Parameters: species or system HeLa; Intracellular C. trachomatis growth in HeLa cells, bulk GFP fluorescence relative to DMSO
Conditions: bulk GFP, single well, 28.5 h, 10 µM, inhibitor

Cc1sc2ncn(CC(=O)NCCCN3CCCCC3)c(=O)c2c1C [CBK305831]
% of control remaining: 105.247%

COC(=O)c1sccc1OCc1nnc(-c2ccc(Cl)c(Cl)c2)o1 [CBK067742]
% of control remaining: 98.945%

O=C(C(OCC(F)(F)F)c1ccccc1)N1CCN(c2nccs2)CC1 (stereo not drawn) [CBK298299]
% of control remaining: 97.9748%

CCN(CC)CCCNC(=O)N1CCCC(CO)C1 (stereo not drawn) [CBK156061]
% of control remaining: 89.2869%

O=C(O)c1cccc(NCN2C(=O)c3ccc([N+](=O)[O-])cc3C2=O)c1 [CBK261100]
% of control remaining: 89.7549%

Cc1cc(C(=O)NC(Cc2c[nH]c3ccccc23)C(=O)O)c(C)o1 (stereo not drawn) [CBK286560]
% of control remaining: 118.86%

O=C(O)CCC(=O)NNC(=O)c1ccccc1[N+](=O)[O-] [CBK261079]
% of control remaining: 109.755%

CCc1cc2c(=O)c(-c3cnn(-c4ccccc4)c3)c(C(F)(F)F)oc2c(CN(C)C)c1O [CBK264530]
% of control remaining: 100%

O=C(c1cc(S(=O)(=O)N2CCOCC2)ccc1Cl)N1CCCCC1CO (stereo not drawn) [CBK304579]
% of control remaining: 108.776%

Cc1ccc(C(C)C)c(OCC(O)CNC(C)C)c1 (stereo not drawn) [CBK026604C]
% of control remaining: 126.559%

O=C(CCn1cc(Br)ccc1=O)NC1CCN(Cc2ccccc2)CC1 [CBK305778]
% of control remaining: 100.712%

CCN1CCCCC1CNC(=O)c1n[nH]c2c1CCC2 (stereo not drawn) [CBK282207]
% of control remaining: 142.857%

Cc1cc(CC(=O)NCCc2c[nH]c3ccc(Cl)cc23)on1 [CBK159774]
% of control remaining: 88.8426%

CCCCN(C=O)c1c(CC)nc2ccc(C(=O)Nc3ccc(Cl)c(Cl)c3)cn12 [CBK145470]
% of control remaining: 138.707%

CN(C)CCN(Cc1ccncc1)Cc1ccsc1 [CBK283206]
% of control remaining: 115.982%

Cc1cccnc1C(NC(=O)C1CCN(CCCN2C(=O)CC3CCCCC3C2=O)CC1)c1ccc(F)cc1 (stereo not drawn) [CBK147910]
% of control remaining: 102.167%

CCCC/C=C/c1cn2ccnc2c(NCc2cc(OC)c(OC)c(OC)c2)n1 [CBK066331]
% of control remaining: 153.951%

Cc1nc(-c2ccc(CNS(=O)(=O)c3ccc(Cl)cc3)cc2)ccc1C(N)=O [CBK285643]
% of control remaining: 138.477%

CCCC/C=C/c1nccnc1N[C@@H](CO)C(C)C [CBK037514]
% of control remaining: 117.858%

O=C1Nc2cc(Cl)ccc2C2=NCCCN12 [CBK284385]
% of control remaining: 111.352%

O=C(O)c1cc(N/N=C/c2ccc(-c3ccc(Cl)c(C(=O)O)c3)o2)ccc1Cl [CBK262483]
% of control remaining: 113.473%

O=C(O)CCSC1CC(=O)N(c2ccc(F)cc2)C1=O (stereo not drawn) [CBK276120]
% of control remaining: 124.963%

FC(F)(F)c1cccnc1OCCOc1ccc(Cl)cc1 [CBK116621]
% of control remaining: 129.371%

CCCC/C=C/c1cnc(N)c(N[C@H](C)c2ccccc2)n1 [CBK064148]
% of control remaining: 114.372%

COc1nn(C)c(CO)c1Cc1c(Cl)cccc1Cl [CBK092285T]
% of control remaining: 123.379%

O=C(O)c1cccc(NS(=O)(=O)c2cccs2)c1 [CBK270068]
% of control remaining: 168.229%

CS(=O)(=O)Nc1ccc(CNC(=O)c2ccccc2Nc2cccc(C(F)(F)F)c2)cc1 [CBK161732]
% of control remaining: 91.5775%

Clc1ccc(Cl)c(-c2ccc(CNCc3cccnc3)o2)c1 [CBK269720C]
% of control remaining: 104.372%

O=c1c2c3c(sc2nc(SCc2cc(O)[nH]n2)n1Cc1ccco1)CCC3 [CBK268301]
% of control remaining: 150.113%

CCC1CCCCN1Cc1c(O)ccc2c(=O)c(Oc3ccc(OC)cc3)c(C(F)(F)F)oc12 (stereo not drawn) [CBK263727]
% of control remaining: 121.378%

Cc1nn(CC(=O)N2CCCC2)c(=O)c2cc3occc3n12 [CBK283621]
% of control remaining: 118.815%

CC(C)C(=O)N[C@@H](C)Cn1nc(-c2cccs2)oc1=O [CBK284335]
% of control remaining: 107.463%

CN(C)C(=O)c1ccc(-c2ccc(OC3CCN(C(=O)CC(C)(C)c4ccccc4)CC3)nc2)cc1 [CBK155047]
% of control remaining: 72.3181%

COc1ccc(OC)c(NC(=O)NCCc2c[nH]cn2)c1 [CBK269956]
% of control remaining: 80.7098%

CN(C)CCN(C)c1cc(C(F)(F)F)nc(NCc2ccc(Cl)cc2)n1 [CBK009668]
% of control remaining: 113.325%

Cc1ccc(C2CC(=O)c3cnc(N)nc3C2)cc1 (stereo not drawn) [CBK288166]
% of control remaining: 134.597%

COCCNc1nc2c(c(N3CCSCC3)n1)CCNCC2 [CBK307510]
% of control remaining: 112.761%

CCn1nc(C)c(-c2cncn2CCn2nc(C)c(C)c2C)c1C [CBK281782]
% of control remaining: 113.732%

O=S(=O)(Nc1cc(O[C@@H]2CCNC2)c2occc2c1)c1ccccc1Br [CBK200020C]
% of control remaining: 116.165%

COc1ccc(Cl)cc1S(=O)(=O)N1CCN(Cc2ccc3c(c2)OCO3)CC1 [CBK266913]
% of control remaining: 172.278%

O=C(O)c1cccc(NS(=O)(=O)Cc2ccccc2[N+](=O)[O-])c1 [CBK038906]
% of control remaining: 92.46%

COc1cc2c(cc1OC)CN(C(=O)CSc1nnc3ccccn13)CC2 [CBK287814]
% of control remaining: 115.755%

COc1cc(C(=O)NCc2ccccn2)cc(OC)c1OC [CBK058552]
% of control remaining: 100.949%

CCOc1ccc2[nH]c3c(c2c1)CN(C(=O)C1(C)CCCO1)CC3 (stereo not drawn) [CBK282659]
% of control remaining: 113.247%

Cc1ccccc1C(c1ncccc1C)N(C)C(=O)C1CCN(Cc2ccc(Cl)c(Cl)c2)CC1 (stereo not drawn) [CBK148366]
% of control remaining: 108.804%

Cc1nn(CC(=O)N2CCCC(C)C2)c(=O)c2cc3ccsc3n12 (stereo not drawn) [CBK284041]
% of control remaining: 162.045%

Nc1nc(OCc2ccc3c(c2)OCO3)cnc1/C=C/c1ccccc1 [CBK145123]
% of control remaining: 117.525%

COc1ccc(C2c3c(-c4cc(C)c(C)cc4O)n[nH]c3C(=O)N2Cc2cccnc2)cc1OC (stereo not drawn) [CBK268846]
% of control remaining: 123.834%

O=C(NCc1cccc(C(F)(F)F)c1)c1ccccc1-n1cccc1 [CBK149598]
% of control remaining: 110.14%

Nc1cccc(Oc2ccc(C(=O)O)c(C(=O)O)c2)c1 [CBK261180]
% of control remaining: 110.027%

Nc1cc2ccccc2c(-c2ccsc2)n1 [CBK085710]
% of control remaining: 98.0796%

COC(=O)c1ccc(-c2cc3ccccc3o2)nc1 [CBK149228]
% of control remaining (Bulk GFP fluorescence): 118.815%

Cc1cc(C)c2nc(-c3cccnc3)cc(C(=O)N3CCN(S(=O)(=O)c4ccc(F)cc4)CC3)c2c1 [CBK267726]
% of control remaining: 134.565%

C=CCN1C(=O)CC2(C1=O)C(=O)N(Cc1nc(-c3ccc(Cl)cc3)no1)c1ccc(OC)cc12 (stereo not drawn) [CBK075692]
% of control remaining: 103.741%

COc1ccc(C)cc1S(=O)(=O)Nc1cc(OCCN2CCOCC2)c2occc2c1 [CBK067419C]
% of control remaining: 88.4492%

COc1ncccc1C(=O)NCC(CC(=O)O)c1ccc(Cl)cc1 (stereo not drawn) [CBK287264]
% of control remaining: 109.418%

CCn1c(COc2c(C)cccc2C)nnc1SCC(=O)N1c2ccccc2Sc2ccccc21 [CBK268103]
% of control remaining: 113.456%

CC(=O)Nc1ccc(N2C(=O)c3ccc(S(=O)(=O)c4ccc5c(c4)C(=O)N(c4ccc(NC(C)=O)cc4)C5=O)cc3C2=O)cc1 [CBK262105]
% of control remaining: 100%

N#C/C(=C\Nc1ccc(S(N)(=O)=O)cc1)c1nc(-c2cccc([N+](=O)[O-])c2)cs1 [CBK262366]
% of control remaining: 107.378%

CCn1c(C)nc2cc(NC(=O)Cc3c(C)noc3C)ccc21 [CBK281834]
% of control remaining: 115.213%

COc1cc2c(cc1OC)CN(S(=O)(=O)c1cc(C(=O)O)ccc1Cl)CC2 [CBK296923]
% of control remaining: 165.945%

CC(C)(CO)NC(=O)COc1ccc(Cl)cc1 [CBK261833]
% of control remaining: 106.631%

CC(C)N1CC(C(=O)N(C)C)C2(CCc3ccccc3C2O)C1 (stereo not drawn) [CBK286305]
% of control remaining: 136.917%

O=C(NCc1ccsc1)N1CCCN(Cc2ccc(Cl)cc2)CC1 [CBK305450]
% of control remaining: 115.538%

Cc1ccc(C2=CCN(CC(=O)Nc3ccccn3)CC2)o1 [CBK283634]
% of control remaining: 113.716%

Cc1cccn2cc(C(=O)NCCCn3cccn3)nc12 [CBK281749]
% of control remaining: 159.008%

OC(COc1ccc(-c2ccccc2)cc1)CN1CCN(Cc2ccccc2)CC1 (stereo not drawn) [CBK074855C]
% of control remaining: 109.57%

CCc1cc(CNS(=O)(=O)Cc2cccc(F)c2)on1 [CBK283061]
% of control remaining: 117.172%

Cc1nn(C)c(C)c1CN(C)C(=O)C(C)Cn1cc(Cl)cn1 (stereo not drawn) [CBK282187]
% of control remaining: 124.966%

CCCc1nnc(SC(C)C(=O)N2CCCc3ccccc32)[nH]1 (stereo not drawn) [CBK306480]
% of control remaining: 92.1204%

COc1ccc(CCNC(=O)CN2CCCC2Cn2cncn2)cc1 (stereo not drawn) [CBK304567]
% of control remaining: 104.608%

COC(=O)[C@@H]1Cc2ncn(C(C)C)c2CN1C(=O)CC(C)(C)C [CBK288988]
% of control remaining: 126.562%

O=C(Cn1ncc2cccn2c1=O)OCC(F)(F)F [CBK283554]
% of control remaining: 109.539%

Cc1oc(-c2ccccc2)cc1C(=O)Nc1cc2ccccc2c(N2CCNCC2)n1 [CBK038938T]
% of control remaining: 93.1206%

Cc1ccc(-c2csc(NC(=O)CN3C(=O)CCC3=O)n2)c(C)c1 [CBK287348]
% of control remaining: 148.672%

CC(N(C)CC(=O)NCc1ccc(OCC(N)=O)cc1)C(C)(C)C (stereo not drawn) [CBK306338]
% of control remaining: 138.648%

CC(C)[C@@H](CO)Nc1nc(-c2cc(C(F)(F)F)cc(C(F)(F)F)c2)cn2ccnc12 [CBK037496]
% of control remaining: 80.2982%

OC(COCc1ccc(Cl)cc1)CN1CCN(c2cccc(Cl)c2)CC1 (stereo not drawn) [CBK278315C]
% of control remaining: 100%
